Source: PubChem BioAssay AID504793 (Drosophila RNAi Screening Center, 2011)
The deposit covers about 23,000 reagents; this is a random part of those that have a named target and a result. Over the whole deposit, 62 (0.27%) were called active. 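Calls come from follow-up tests whose scores are not deposited, so confirmed genes may have low counts here; counts are not normalised per plate.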 Raw values are not corrected between plates. The numbers tell different reagents against one gene apart. A plus sign joins genes that one reagent is predicted to hit.

Test: 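Whole-genome screen for parts of the DNA damage checkpoint at G2/M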 (primary screen)
System: Drosophila S2R+ cells
Knock-down reagent: long dsRNA against Drosophila genes, about 0.25 µg dsRNA per well
Time to read-out: 4 days of dsRNA, then 4 hours of drug before read-out
Conditions: doxorubicin 0.5 µM for 4 hours to cause double-strand breaks, in cells also given a low, harmless dose of dsRNA against nbs to sensitise the assay
Read-out: 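Mitotic index as the number of phospho-histone H3-positive cells in each well following doxorubicin, given as raw counts without normalisation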
Scale: mitotic cells: higher = more cells in mitosis, weaker G2 arrest
Active means: 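a call needs confirmation in secondary tests, with other dsRNAs and a check of mitotic timing without damage, not just a high primary count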
Calls: active = confirmed in follow-up tests; inactive = not confirmed

| target | reagent no. | mitotic cells, replicate 1 | mitotic cells, replicate 2 | Outcome |
| --- | --- | --- | --- | --- |
| Or83a | 1 | 7 | – | inactive |
| GluRIIE | 1 | 10 | – | inactive |
| GluRIIE | 2 | 6 | – | inactive |
| CG17145 | 1 | 3 | – | inactive |
| CG32147 | 1 | 7 | – | inactive |
| CG32147 | 2 | 4 | – | inactive |
| Ca-alpha1T | 1 | 11 | – | inactive |
| Ca-alpha1T | 2 | 6 | – | inactive |
| Ca-alpha1T | 3 | 11 | – | inactive |
| Ca-alpha1T | 4 | 16 | – | inactive |
| Ca-alpha1T | 5 | 7 | – | inactive |
| CG13806 | 1 | 3 | – | inactive |
| CG31673 | 1 | 11 | – | inactive |
| Pdf | 1 | 14 | – | inactive |
| Mst57Dc | 1 | 12 | – | inactive |
| CG17544 | 1 | 5 | – | inactive |
| CG17544 | 2 | 3 | – | inactive |
| ab | 1 | – | – | inactive |
| CG30177 | 1 | 4 | – | inactive |
| shep | 1 | 3 | – | inactive |
| shep | 2 | 9 | – | inactive |
| shep | 3 | 10 | – | inactive |
| CG2680 | 1 | 11 | – | inactive |
| CG12229 | 1 | 7 | – | inactive |
| Dus4 | 1 | 4 | – | inactive |
| Etl1 | 1 | 2 | – | inactive |
| CG8441 | 1 | 4 | – | inactive |
| sstn | 1 | 2 | – | inactive |
| sstn | 2 | 2 | – | inactive |
| tmod | 1 | 17 | – | inactive |
| tmod | 2 | 7 | – | inactive |
| tmod | 3 | 3 | – | inactive |
| tmod | 4 | 8 | – | inactive |
| hth | 1 | 7 | – | inactive |
| hth | 2 | 3 | – | inactive |
| beat-Va | 1 | 3 | – | inactive |
| dpr7 | 1 | 4 | – | inactive |
| dpr7 | 2 | 4 | – | inactive |
| CG10462 | 1 | 6 | – | inactive |
| CG6051 | 1 | 3 | – | inactive |
| CG6051 | 2 | 2 | – | inactive |
| Elba2 | 1 | 6 | – | inactive |
| Elba2 | 2 | 3 | – | inactive |
| botv | 1 | 3 | – | inactive |
| botv | 2 | 4 | – | inactive |
| CG14391 | 1 | 4 | – | inactive |
| CG14391 | 2 | 11 | – | inactive |
| CG8490 | 1 | 5 | – | inactive |
| CG8490 | 2 | 7 | – | inactive |
| CG14811 | 1 | 16 | – | inactive |
| CG5550 | 1 | 6 | – | inactive |
| CG5550 | 2 | 13 | – | inactive |
| Elp3 | 1 | 5 | – | inactive |
| CG9458 | 1 | 1 | – | inactive |
| CG31373 | 1 | 5 | – | inactive |
| CG5056 | 1 | 2 | – | inactive |
| BORCS5 | 1 | 8 | – | inactive |
| BORCS5 | 2 | 7 | – | inactive |
| lbk | 1 | 4 | – | inactive |

A stretch taken from the entries so far, as a working copy:
| target | reagent no. | mitotic cells, replicate 1 | mitotic cells, replicate 2 | Outcome |
| --- | --- | --- | --- | --- |
| Ca-alpha1T | 1 | 11 | – | inactive |
| Ca-alpha1T | 2 | 6 | – | inactive |
| Ca-alpha1T | 3 | 11 | – | inactive |
| Ca-alpha1T | 4 | 16 | – | inactive |
| Ca-alpha1T | 5 | 7 | – | inactive |
| CG13806 | 1 | 3 | – | inactive |
| CG31673 | 1 | 11 | – | inactive |
| Pdf | 1 | 14 | – | inactive |
| Mst57Dc | 1 | 12 | – | inactive |
| CG17544 | 1 | 5 | – | inactive |
| CG17544 | 2 | 3 | – | inactive |
| ab | 1 | – | – | inactive |
| CG30177 | 1 | 4 | – | inactive |
| shep | 1 | 3 | – | inactive |

More entries follow.
| target | reagent no. | mitotic cells, replicate 1 | mitotic cells, replicate 2 | Outcome |
| --- | --- | --- | --- | --- |
| CG13862 | 1 | 8 | – | inactive |
| CG15625 | 1 | 4 | – | inactive |
| CG15625 | 2 | 1 | – | inactive |
| CG15286 | 1 | 2 | – | inactive |
| Acp36DE | 1 | 4 | – | inactive |
| Keap1 | 1 | 9 | – | inactive |
| Keap1 | 2 | 8 | – | inactive |
| Jhbp1 | 1 | 6 | – | inactive |
| Jhbp1 | 2 | 2 | – | inactive |
| CG3308 | 1 | 3 | – | inactive |
| cib | 1 | 5 | 3 | inactive |
| stas | 1 | 9 | – | inactive |
| EndoGI | 1 | 4 | – | inactive |
| CG13473 | 1 | 5 | – | inactive |
| vih | 1 | 390 | – | inactive |
| vih | 2 | 176 | – | inactive |
| rtv | 1 | 5 | – | inactive |
| CG43345 | 1 | 4 | – | inactive |
| Drak | 1 | 21 | – | inactive |
| Drak | 2 | 10 | – | inactive |
| Drak | 3 | 14 | – | inactive |
| l(2)05714 | 1 | 3 | – | inactive |
| l(2)05714 | 2 | 13 | – | inactive |
| Coq4 + Gorab + frc | 1 | 5 | – | inactive |
| gny | 1 | 4 | – | inactive |
| alph | 1 | 6 | – | inactive |
| alph | 2 | 6 | – | inactive |
| Dyb | 1 | 13 | – | inactive |
| Dyb | 2 | 11 | – | inactive |
| Dyb | 3 | 5 | – | inactive |
| ind | 1 | 17 | – | inactive |
| Usp47 | 1 | 5 | – | inactive |
| GstT3 | 1 | 9 | – | inactive |
| CG7298 | 1 | 7 | – | inactive |
| CG30096 | 1 | 9 | – | inactive |
| chif | 1 | 11 | – | inactive |
| Ripalpha | 1 | 6 | – | inactive |
| CG34428 | 1 | 1 | – | inactive |
| Vha16-4 + CG15614 | 1 | 5 | – | inactive |
| CG34205 | 1 | 5 | – | inactive |
| CG34205 | 2 | 17 | – | inactive |
| CG9098 | 1 | 4 | 8 | inactive |
| CG9098 | 2 | 6 | – | inactive |
| CG9098 | 3 | 4 | – | inactive |
| TTLL4B | 1 | 7 | – | inactive |
| TTLL4B | 2 | 2 | – | inactive |
| CG11842 | 1 | 11 | – | inactive |
| CG11842 | 2 | 9 | – | inactive |
| CG14315 | 1 | 7 | – | inactive |
| CG13245 | 1 | 3 | – | inactive |
| Cul6 | 1 | 7 | – | inactive |
